Laboratory results as given in PMC9236607.
No constants are given. Whether binding was seen depends on the method and setting. Some binding calls cover weakened binding; strength is not graded here. Where a sequence is shown, tags or fusion partners need not be part of it.

Chains of the proteins cited; added tags and fusions are not shown. Lines headed by an entry give the natural chain unless they say otherwise; changes in a name come on top.
UniProt P09733: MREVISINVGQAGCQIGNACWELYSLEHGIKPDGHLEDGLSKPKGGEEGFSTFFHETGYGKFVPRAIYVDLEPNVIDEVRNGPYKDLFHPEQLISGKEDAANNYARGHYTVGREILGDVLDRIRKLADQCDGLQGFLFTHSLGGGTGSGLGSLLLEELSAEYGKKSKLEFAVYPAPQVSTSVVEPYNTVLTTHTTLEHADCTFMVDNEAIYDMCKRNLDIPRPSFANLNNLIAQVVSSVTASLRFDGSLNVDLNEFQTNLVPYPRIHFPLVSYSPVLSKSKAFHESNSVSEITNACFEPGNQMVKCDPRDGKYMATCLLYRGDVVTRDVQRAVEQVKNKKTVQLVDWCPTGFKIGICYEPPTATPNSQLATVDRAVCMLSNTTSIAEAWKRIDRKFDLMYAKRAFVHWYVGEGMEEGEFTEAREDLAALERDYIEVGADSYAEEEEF

Biological target: T1, GST-TOG1/2 (the two TOG domains of Stu2 fused to a GST tag, Stu2 1-590) (S. cerevisiae) (UniProt P46675)
T1 sequence: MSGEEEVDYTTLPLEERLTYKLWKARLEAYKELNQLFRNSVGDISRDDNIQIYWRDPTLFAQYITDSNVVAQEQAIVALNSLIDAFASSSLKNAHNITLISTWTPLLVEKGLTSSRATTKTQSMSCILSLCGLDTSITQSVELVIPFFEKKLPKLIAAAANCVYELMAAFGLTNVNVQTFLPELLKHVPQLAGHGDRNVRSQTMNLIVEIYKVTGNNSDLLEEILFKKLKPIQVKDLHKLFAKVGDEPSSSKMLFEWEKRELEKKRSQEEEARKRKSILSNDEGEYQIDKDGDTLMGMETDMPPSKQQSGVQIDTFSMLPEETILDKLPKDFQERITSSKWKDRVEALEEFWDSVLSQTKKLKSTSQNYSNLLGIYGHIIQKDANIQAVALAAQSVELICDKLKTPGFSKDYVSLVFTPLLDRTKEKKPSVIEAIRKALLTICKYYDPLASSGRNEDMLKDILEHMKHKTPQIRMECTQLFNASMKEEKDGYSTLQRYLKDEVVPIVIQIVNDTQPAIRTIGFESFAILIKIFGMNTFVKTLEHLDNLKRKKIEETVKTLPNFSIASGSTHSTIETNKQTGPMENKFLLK
Assay: pull-down; 100 nM tubulin mixed with 9.8 nM to 5 µM GST-TOG1/2 at 4°C for 15 min, then glutathione magnetic agarose beads, 4°C, 1 hr; beads equilibrated in 125 mM Tris-HCl, 150 mM KCl, 1 mM DTT, 1 mM EDTA, pH 7.4; unbound tubulin left in the supernatant read by western blot for α- and β-tubulin; both purified

Row | binding | Substance
1 | binds weakly | purified budding yeast tubulin heterodimer, Tub1-V410A (internal 6X-His) with Tub2 (from UniProt P09733 1-447; P02557 1-457) (complex)
2 | binds weakly | purified budding yeast tubulin heterodimer, Tub1-V410I (internal 6X-His) with Tub2 (from UniProt P09733 1-447; P02557 1-457) (complex)
